{
  "source": "patent US20100056516A1",
  "about": "(priority 2006, published 2010)",
  "key": {"HXB2 virus": {"tested_on": "HXB2 virus", "assay_type": "cell-based, HIV", "details": "HeLa P4-2 cells, read-out: antiviral IC50 (SCIA-B)", "procedure": "An assay for measuring the inhibition of acute HIV infection with HeLa P4-2 cells in a single cycle infectivity assay (SCIA-A) was conducted in accordance with Joyce, J. G., et al., J. Biol. Chem., 2002, 277, 45811, Hazuda, D. J. et al., Science, 2000, 287, 646, and Kimpton, J. et al, J. Virol. 1992, 66, 2232. Infectious virus was produced by transfecting 293T cells with HIV proviral DNA in which the integrase gene was derived from a IIIB isolate and the remainder of the HIV genome was derived from the NL4-3 isolate.\nThis assay B for measuring the inhibition of acute HIV infection with HeLa P4-2 cells in a single cycle infectivity assay (SCIA-B) is essentially the same as Assay A described above, except that HXB2 virus is employed instead of the IIIb isolate."}, "[1]": {"target": "HIV-1 reverse transcriptase (RNase H) (Human immunodeficiency virus type 1 group M subtype B, UniProt P04585)", "test": "ASH assay: RNase H mediated RNA cleavage (ECL format, BioVeris M384)", "assay_type": "biochemical", "details": "5'-ruthenium oligo, BioVeris M384 analyzer"}, "HIV integrase": {"target": "HIV integrase (Human immunodeficiency virus type 1 group M subtype B, UniProt P04585)", "test": "integrase strand transfer assay (STA)", "assay_type": "biochemical"}},
  "note": "Some entries share one result that the patent states for a list of compounds.",
  "data": [
    {"molecule": "1,4-Dihydroxy-2-oxo-N-(6-phenoxypyridin-3-yl)-1,2-dihydro-1,8-naphthyridine-3-carboxamide [Example 17]", "values": [
      {"measurement": "IC50", "setting": "HXB2 virus", "result": "< 100", "unit": "µM"},
      {"measurement": "IC50", "setting": "[1]", "result": "< 100", "unit": "µM"},
      {"measurement": "IC50", "setting": "HIV integrase", "result": "< 50", "unit": "µM"}
    ]},
    {"molecule": "1-hydroxy-4-[(2- pyridin-3- ylethyl)amino]-1,8- naphthyridin-2(1H)-one [Example 137]", "values": [
      {"measurement": "IC50", "setting": "HXB2 virus", "result": "< 100", "unit": "µM"},
      {"measurement": "IC50", "setting": "[1]", "result": "< 100", "unit": "µM"},
      {"measurement": "IC50", "setting": "HIV integrase", "result": "< 50", "unit": "µM"}
    ]},
    {"molecule": "1,4-dihydroxy-N-methyl-2-oxo-N-(piperidin-4-ylmethyl)-1,2-dihydro-1,8-naphthyridine-3-carboxamide [Example 26]", "values": [
      {"measurement": "IC50", "setting": "HXB2 virus", "result": "< 100", "unit": "µM"},
      {"measurement": "IC50", "setting": "[1]", "result": "< 100", "unit": "µM"},
      {"measurement": "IC50", "setting": "HIV integrase", "result": "< 50", "unit": "µM"}
    ]},
    {"molecule": "CCOC(=O)c1c(O)c2cc(-c3cccc(-c4ccccc4)c3)cnc2n(O)c1=O", "note": "[Example 64, Ethyl 6-biphenyl-3-yl-1,4-dihydroxy-2-oxo-1,2-dihydro-1,8-naphthyridine-3-carboxylate]", "values": [
      {"measurement": "IC50", "setting": "[1]", "result": "< 100", "unit": "µM"}
    ]},
    {"molecule": "NCc1ccccc1CNc1cc(=O)n(O)c2ncccc12", "note": "[Example 163, 4-{[2-(aminomethyl)benzyl]amino}-1-hydroxy-1,8-naphthyridin-2 (1H-one)]", "values": [
      {"measurement": "IC50", "setting": "[1]", "result": "< 100", "unit": "µM"}
    ]},
    {"molecule": "CNC(=O)c1ccc2c(=O)n(O)c3ncccc3c2c1", "note": "[Example 266, 5-Hydroxy-N-methyl-6-oxo-5,6-dihydrobenzo[c]-1,8-naphthyridine-9-carboxamide]", "values": [
      {"measurement": "IC50", "setting": "[1]", "result": "< 100", "unit": "µM"}
    ]},
    {"molecule": "CN(C)C(=O)c1cccc(-c2cc(=O)n(O)c3ncccc23)c1", "note": "[Example 181, 3-(1-hydroxy-2-oxo-1,2-dihydro-1,8-naphthyridin-4-yl)-N,N-dimethylbenzamide]", "values": [
      {"measurement": "IC50", "setting": "[1]", "result": "< 100", "unit": "µM"}
    ]},
    {"molecule": "O=c1cc(N2CCC(N3CCOCC3)CC2)c2cccnc2n1O", "note": "[Example 138, 1-hydroxy-4-[4-(4-morpholinyl)-1-piperidinyl]-1,8-naphthyridin-2(1H-one)]", "values": [
      {"measurement": "IC50", "setting": "[1]", "result": "< 100", "unit": "µM"}
    ]},
    {"molecule": "NCc1cccc(-c2cccc(-c3ccnc4c3c(O)cc(=O)n4O)c2)c1", "note": "[Example 227, 5-[3′-(aminomethyl)biphenyl-3-yl]-1,4-dihydroxy-1,8-naphthyridin-2-(1H)-one]", "values": [
      {"measurement": "IC50", "setting": "[1]", "result": "< 100", "unit": "µM"}
    ]},
    {"molecule": "NCc1ccc(-c2ccc(-c3c(-c4ccccc4)c(=O)n(O)c4ncc(F)cc34)cc2)cc1", "note": "[Example 242, 4-[4′-(aminomethyl)biphenyl-4-yl]-6-fluoro-1-hydroxy-3-phenyl-1,8-naphthyridin-2-(1H)-one]", "values": [
      {"measurement": "IC50", "setting": "[1]", "result": "< 100", "unit": "µM"}
    ]},
    {"molecule": "CC(C)(C)NC(=O)c1cccc(-c2cc(=O)n(O)c3ncccc23)c1", "note": "[Example 182]", "values": [
      {"measurement": "IC50", "setting": "[1]", "result": "< 100", "unit": "µM"}
    ]},
    {"molecule": "CC(c1ccc(-c2cccc(-c3cc(=O)n(O)c4ncccc34)c2)cc1)N1CCOCC1", "note": "(stereo not shown) [Example 178, 1-hydroxy-4-[4′-(1-morpholin-4-ylethyl)biphenyl-3-yl]-1,8-naphthyridin-2(1H)-one]", "values": [
      {"measurement": "IC50", "setting": "[1]", "result": "< 100", "unit": "µM"}
    ]},
    {"molecule": "CN(C(=O)c1c(O)c2cccnc2n(O)c1=O)C1CCN(C(=O)OC(C)(C)C)CC1", "note": "[Example 9]", "values": [
      {"measurement": "IC50", "setting": "[1]", "result": "< 100", "unit": "µM"}
    ]},
    {"molecule": "CC(c1ccc(-c2cc(=O)n(O)c3ncccc23)cc1)N1CCOCC1", "note": "(stereo not shown) [Example 174, 1-hydroxy-4-[4-(1-morpholin-4-ylethyl)phenyl]-1,8-naphthyridin-2(1H)-one]", "values": [
      {"measurement": "IC50", "setting": "[1]", "result": "< 100", "unit": "µM"}
    ]},
    {"molecule": "Cc1cc(C)n(-c2cccc(-c3ccnc4c3c(O)cc(=O)n4O)c2)n1", "note": "[Example 229, 5-[3-(3,5-dimethyl-1H-pyrazol-1-yl)phenyl]-1,4-dihydroxy-1,8-naphthyridin-2(1H)-one]", "values": [
      {"measurement": "IC50", "setting": "[1]", "result": "< 100", "unit": "µM"}
    ]},
    {"molecule": "O=C(c1cc(=O)n(O)c2ncccc12)N1CCc2ccccc2C1", "note": "[Example 247, 4-(3,4-dihydroisoquinolin-2(1H)-ylcarbonyl)-1-hydroxy-1,8-naphthyridin-2(1H)-one]", "values": [
      {"measurement": "IC50", "setting": "[1]", "result": "< 100", "unit": "µM"}
    ]},
    {"molecule": "O=c1c(-c2ccccc2)c(O)c2cc(-c3ccc4ccccc4c3)cnc2n1O", "note": "[Example 56, 1,4-Dihydroxy-6-(2-naphthyl)-3-phenyl-1,8-naphthyridin-2(1H)-one]", "values": [
      {"measurement": "IC50", "setting": "[1]", "result": "< 100", "unit": "µM"}
    ]},
    {"molecule": "COc1ccc(NC(=O)c2c(O)c3cccnc3n(O)c2=O)cc1", "note": "[Example 13, 1,4-Dihydroxy-N-(4-methoxyphenyl)-2-oxo-1,2-dihydro-1,8-naphthyridine-3-carboxamide]", "values": [
      {"measurement": "IC50", "setting": "[1]", "result": "< 100", "unit": "µM"}
    ]},
    {"molecule": "O=c1cc(NC2CCc3ccccc32)c2cccnc2n1O", "note": "(stereo not shown) [Example 134, 4-(2,3-dihydro-1H-inden-1-ylamino)-1-hydroxy-1,8-naphthyridin-2(1H)-one]", "values": [
      {"measurement": "IC50", "setting": "[1]", "result": "< 100", "unit": "µM"}
    ]},
    {"molecule": "O=c1cc(Nc2ccccc2N2CCCCC2)c2cccnc2n1O", "note": "[Example 139, 1-hydroxy-4-{[2-(1-piperidinyl)pheny]amino}-1,8-naphthyridin-2(1H-one)]", "values": [
      {"measurement": "IC50", "setting": "[1]", "result": "< 100", "unit": "µM"}
    ]},
    {"molecule": "O=C(Nc1cccnc1)c1c(O)c2cccnc2n(O)c1=O", "note": "[Example 16, 1,4-Dihydroxy-2-oxo-N-pyridin-3-yl-1,2-dihydro-1,8-naphthyridine-3-carboxamide]", "values": [
      {"measurement": "IC50", "setting": "[1]", "result": "< 100", "unit": "µM"}
    ]},
    {"molecule": "O=C(Nc1cc(=O)n(O)c2ncccc12)c1ccccc1", "note": "[Example 102, N-(1-Hydroxy-2-oxo-1,2-dihydro-1,8-naphthyridin-4-yl)benzamide]", "values": [
      {"measurement": "IC50", "setting": "[1]", "result": "< 100", "unit": "µM"}
    ]},
    {"molecule": "2-[2-(Benzyloxy)phenyl]-6-hydroxy-2,3-dihydropyrimido[5,4-c]-1,8-naphthyridine-4,5(1H, 6H)dione [Example 222]", "values": [
      {"measurement": "IC50", "setting": "HXB2 virus", "result": "< 100", "unit": "µM"},
      {"measurement": "IC50", "setting": "[1]", "result": "< 100", "unit": "µM"},
      {"measurement": "IC50", "setting": "HIV integrase", "result": "< 50", "unit": "µM"}
    ]},
    {"molecule": "CN(C(=O)c1c(O)c2cccnc2n(O)c1=O)C1CCN(C(=O)OC(C)(C)C)C1", "note": "(stereo not shown) [Example 10, tert-Butyl 3-[[(1,4-dihydroxy-2-oxo-1,2-dihydro-1,8-naphthyridin-3-yl)carbonyl](methyl)amino]pyrrolidine-1-carboxylate]", "values": [
      {"measurement": "IC50", "setting": "[1]", "result": "< 100", "unit": "µM"}
    ]},
    {"molecule": "CCOC(=O)c1c(O)c2cc(-c3cccc(C#N)c3)cnc2n(O)c1=O", "note": "[Example 60, Ethyl 6-(3-cyanophenyl)-1,4-dihydroxy-2-oxo-1,2-dihydro-1,8-naphthyridine-3-carboxylate]", "values": [
      {"measurement": "IC50", "setting": "[1]", "result": "< 100", "unit": "µM"}
    ]},
    {"molecule": "CCOC(=O)c1c(NCc2ccccc2)c2cccnc2n(O)c1=O", "note": "[Example 128, Ethyl 4-(benzylamino)-1-hydroxy-2-oxo-1,2-dihydro-1,8-naphthyridine-3-carboxylate]", "values": [
      {"measurement": "IC50", "setting": "[1]", "result": "< 100", "unit": "µM"}
    ]},
    {"molecule": "Nc1cc(=O)n(O)c2ncccc12", "note": "[Example 99, 4-Amino-1-hydroxy-1,8-naphthyridin-2(1H)-one]", "values": [
      {"measurement": "IC50", "setting": "[1]", "result": "< 100", "unit": "µM"}
    ]},
    {"molecule": "COc1ccc(NC(=O)c2c(O)c3cccnc3n(O)c2=O)cn1", "note": "[Example 14, 1,4-Dihydroxy-N-(6-methoxypyridine-3-yl)-2-oxo-1,2-dihydro-1,8-naphthyridine-3-carboxamide]", "values": [
      {"measurement": "IC50", "setting": "[1]", "result": "< 100", "unit": "µM"}
    ]},
    {"molecule": "CCOC(=O)c1c(O)c2cc(C(=O)NCc3ccccc3OC)cnc2n(O)c1=O", "note": "[Example 79, Ethyl 1,4-dihydroxy-6-{[2-methoxybenzyl)amino] carbonyl}-2-oxo-1,2-dihydro-1,8-naphthyridine-3-carboxylate]", "values": [
      {"measurement": "IC50", "setting": "[1]", "result": "< 100", "unit": "µM"}
    ]},
    {"molecule": "NS(=O)(=O)c1cccc(-c2cc(=O)n(O)c3ncccc23)c1", "note": "[Example 192, 3-(1-hydroxy-2-oxo-1,2-dihydro-1,8-naphthyridin-4-yl)benzenesulfonamide]", "values": [
      {"measurement": "IC50", "setting": "[1]", "result": "< 100", "unit": "µM"}
    ]},
    {"molecule": "O=c1cc(N2CCN(Cc3ccccc3)CC2)c2cccnc2n1O", "note": "[Example 136, 4-(4-benzylpiperazin-1-yl)-1-hydroxy-1,8-naphthyridin-2(1H)-one]", "values": [
      {"measurement": "IC50", "setting": "[1]", "result": "< 100", "unit": "µM"}
    ]},
    {"molecule": "CCOC(=O)c1c(O)c2cc(C(=O)N(C)Cc3ccccc3)cnc2n(O)c1=O", "note": "[Example 80, Ethyl 6-{[benzyl(methyl)amino]carbonyl}-1,4-dihydroxy-2-oxo-1,2-dihydro-1,8-naphthyridine-3-carboxylate]", "values": [
      {"measurement": "IC50", "setting": "[1]", "result": "< 100", "unit": "µM"}
    ]}
  ]
}
